From paper PMC9913320 (Cancers, 2023)

Assay: peptide made by a vendor
Conditions: whole synthesis

HYNIC-ADH-1
purity (crude or final not stated): 98.83%
